Some of the results follow. Shown are side measurements of this screen, not its main read-out; they come without a call.

The nature of test [1]: wild-type E. coli growth inhibition versus h38 humanized strain – h38 mutant RFP, wild-type GFP, cherry-pick, dose response (AID 977622). To be noted: E. coli mixed culture, 24 h, total growth OD600 at 50 uM.
The test system of test [2] is E. coli h38 humanized mutant ribosome RFP fluorescence, mixed culture, 24 h. The test is described as above. To be noted: h38 mutant RFP at 50 uM.

In the case of `O=C(CN(CCO)c1ccccc1)Nc1cccc(S(=O)(=O)N2CCCC2)c1`, the activity change was -25.9% in test [1] and -3.44% in test [2].

For `O=C(CN1CCCCC1)Nc1ccccc1-c1ccccc1`, the values for the activity change in test [1] and in test [2] were -3.66% and -3.37%, respectively.

For `C[C@@H]1CCCCO[C@H](CN(C)C)[C@H](C)CN([C@H](C)CO)C(=O)c2cc(NC(=O)Nc3cccc4ccccc34)ccc2O1`, the activity change in test [1] was -12.5%; in test [2], -1.74%.

On to `C[C@H]1CN([C@@H](C)CO)C(=O)c2c(c3ccccc3n2C)-c2ccccc2CO[C@@H]1CN(C)Cc1ccccc1`, for which the activity change in test [1] was determined as 2.61%; in test [2], 20.5%.

As to `Fc1ccc(-n2cc(CNCCc3cccnc3)c(-c3ccccc3Cl)n2)cc1`, the activity change was -46.2% in test [1] and -9.89% in test [2].

`COc1ccc(C(=O)C[n+]2ccc3c(c2)nc(-c2cc(OC)c(OC)cc2OC)n3C)cc1`: in test [1], the activity change was -10.7%.

In the case of `COc1ccc(C(=O)N2C[C@H]3[C@@H](c4ccccc42)[C@@H](CO)N3Cc2ccc(Cl)cc2)cc1`, the activity change is -90.9% in test [1] and 3.15% in test [2].

With `CCCNC(=O)c1cc(C2CCCN(S(=O)(=O)c3cccc4cccnc34)C2)on1` (stereo unspecified), the activity change is -22.5% in test [1] and 0.356% in test [2].

As for `COc1ccccc1C1CC(=O)Oc2cc(C)c(Cl)cc21` (stereo unspecified), the activity change in test [1] turned out to be 18.5%.

As for `COc1ccc(C(=O)Cn2c(C)nc([N+](=O)[O-])c2Br)cc1`, the results for the activity change in test [1] and in test [2] were 0.434% and -8.8%, respectively.

As to `C#CCOc1nc(Nc2cccc([N+](=O)[O-])c2)nc(OCC#C)n1`, the activity change in test [1] was -3.82%.

Turning to `Cc1ccc(N2C(=S)NC3c4cc(Cl)ccc4OC2(C)C3C(=O)N(C)C)cc1` (stereo unspecified), the activity change in test [1] was -13.4%.

`Cc1ccc(NC(=O)C2CCCN(c3ncnc4c3nc3n4CCCCC3)C2)cc1Cl` (stereo unspecified): the activity change in test [1] was -17.5%.

Take `Cc1cc(Cl)n2ncc(-c3ccccc3)c2n1`: the activity change in test [1] was -73.5%.

As for `O=S(=O)(c1ccc(F)cc1)N1C[C@@H]2N[C@H](C1)C2c1ccc(/C=C/c2ccccc2)cc1` (stereo partly specified), the activity change was -67.7% in test [1] and 11.1% in test [2].

In the case of `COc1ccc2oc(C)c(C(=O)c3ccccc3)c2c1`, the activity change in test [1] was -53.1%; in test [2], 2.22%.

`COc1ccc(NC(=O)COC(=O)CCCOc2ccc(Cl)cc2Cl)cc1Cl`: the values for the activity change in test [1] and in test [2] were -42% and -22.2%, respectively.

As for `CN1CCN(C(=O)C[C@@H]2CC[C@@H]3[C@H](COC[C@H](O)CN3C(=O)Nc3ccc(Cl)cc3)O2)CC1`, the activity change in test [1] is -65.9%; in test [2] it was 79.3%.

As for `Cc1ccc(-c2c[n+](CC(=O)OCc3ccccc3)c3n2CCC3)cc1`, the activity change worked out at 7.61% in test [1] and 45.1% in test [2].

Consider `CC(=O)Nc1ccc(CNc2nc(NCCN(C)C)nc3cc(-c4ccccc4)sc23)cc1`, for which the activity change in test [1] was -1.24%; in test [2] it was -9.4%.

For `CSCCC1NC(=O)N(C(C)C(=O)Nc2cc(Cl)cc(Cl)c2)C1=O` (stereo unspecified), the activity change in test [1] is -21.9%; in test [2], 1.87%.

In the case of `COc1cc2nc(Nc3ccc(F)cc3)nc(N)c2cc1OC`, the activity change in test [1] was -5.73%.

As to `O=C(Cn1c2[n+](c3ccc(C(F)(F)F)cc31)CCCCC2)c1ccc2c(c1)OCCO2`, the activity change was -44.2% in test [1] and 11% in test [2].

On to `COc1ccccc1N1CCN(Cc2ccc(OC)c3ccccc23)CC1`, for which the activity change is -24.5% in test [1] and -1.86% in test [2].

The values are drawn from PubChem BioAssay AID977622 (Broad Institute, 2014).
